In the supplement of paper PMC10849652:
The list shows a part of the results.

Amino acid sequences for entries named in this document (tags omitted). A change or cut given only in a name is not applied to a line headed by its entry.
UniProt Q99570, whole entry, looked up: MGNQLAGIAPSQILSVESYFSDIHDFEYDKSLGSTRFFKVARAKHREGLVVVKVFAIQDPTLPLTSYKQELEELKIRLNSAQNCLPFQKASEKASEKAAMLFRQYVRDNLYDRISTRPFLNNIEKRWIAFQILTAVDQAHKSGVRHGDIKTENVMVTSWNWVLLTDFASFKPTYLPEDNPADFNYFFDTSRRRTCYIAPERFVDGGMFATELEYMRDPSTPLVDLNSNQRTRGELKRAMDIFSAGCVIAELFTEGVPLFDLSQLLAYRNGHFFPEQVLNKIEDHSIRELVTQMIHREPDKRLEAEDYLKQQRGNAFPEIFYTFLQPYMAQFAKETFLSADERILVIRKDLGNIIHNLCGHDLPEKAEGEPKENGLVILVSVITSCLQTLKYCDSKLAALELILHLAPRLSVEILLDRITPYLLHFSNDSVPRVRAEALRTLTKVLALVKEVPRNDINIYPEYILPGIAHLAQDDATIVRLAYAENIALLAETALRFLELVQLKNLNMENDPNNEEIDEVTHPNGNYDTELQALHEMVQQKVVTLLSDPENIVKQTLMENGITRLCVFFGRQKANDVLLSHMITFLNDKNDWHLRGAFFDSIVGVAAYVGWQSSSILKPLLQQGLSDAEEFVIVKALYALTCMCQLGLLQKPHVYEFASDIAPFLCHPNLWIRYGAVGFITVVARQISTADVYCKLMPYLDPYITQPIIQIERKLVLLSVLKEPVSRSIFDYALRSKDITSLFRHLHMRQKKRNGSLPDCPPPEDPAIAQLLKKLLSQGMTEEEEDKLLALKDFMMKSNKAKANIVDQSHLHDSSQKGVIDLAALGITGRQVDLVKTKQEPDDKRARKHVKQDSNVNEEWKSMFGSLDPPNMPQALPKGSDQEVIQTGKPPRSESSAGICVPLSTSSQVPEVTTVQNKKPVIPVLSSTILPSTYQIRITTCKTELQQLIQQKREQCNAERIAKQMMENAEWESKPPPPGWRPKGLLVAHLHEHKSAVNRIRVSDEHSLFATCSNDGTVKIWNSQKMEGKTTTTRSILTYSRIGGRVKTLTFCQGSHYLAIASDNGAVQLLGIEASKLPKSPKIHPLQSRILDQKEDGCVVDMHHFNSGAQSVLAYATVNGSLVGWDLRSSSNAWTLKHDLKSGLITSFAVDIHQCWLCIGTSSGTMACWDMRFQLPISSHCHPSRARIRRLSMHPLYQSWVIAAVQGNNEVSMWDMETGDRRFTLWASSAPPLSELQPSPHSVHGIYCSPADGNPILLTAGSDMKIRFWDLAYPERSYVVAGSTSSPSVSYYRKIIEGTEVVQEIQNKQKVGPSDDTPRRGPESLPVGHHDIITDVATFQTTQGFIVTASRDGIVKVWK
UniProt P37287: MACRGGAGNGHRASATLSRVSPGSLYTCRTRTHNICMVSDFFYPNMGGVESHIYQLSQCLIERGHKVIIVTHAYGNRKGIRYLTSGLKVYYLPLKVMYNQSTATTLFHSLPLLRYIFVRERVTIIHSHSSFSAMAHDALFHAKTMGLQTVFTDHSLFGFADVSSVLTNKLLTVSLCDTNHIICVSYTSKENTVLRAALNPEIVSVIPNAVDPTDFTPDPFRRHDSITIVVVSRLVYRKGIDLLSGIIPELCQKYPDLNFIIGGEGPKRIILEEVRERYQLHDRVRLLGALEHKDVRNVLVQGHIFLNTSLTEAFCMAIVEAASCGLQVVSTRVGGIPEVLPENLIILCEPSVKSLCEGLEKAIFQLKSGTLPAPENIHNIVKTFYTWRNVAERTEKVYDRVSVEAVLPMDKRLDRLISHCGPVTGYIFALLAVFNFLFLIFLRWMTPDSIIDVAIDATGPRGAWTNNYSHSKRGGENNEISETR
UniProt Q96S52: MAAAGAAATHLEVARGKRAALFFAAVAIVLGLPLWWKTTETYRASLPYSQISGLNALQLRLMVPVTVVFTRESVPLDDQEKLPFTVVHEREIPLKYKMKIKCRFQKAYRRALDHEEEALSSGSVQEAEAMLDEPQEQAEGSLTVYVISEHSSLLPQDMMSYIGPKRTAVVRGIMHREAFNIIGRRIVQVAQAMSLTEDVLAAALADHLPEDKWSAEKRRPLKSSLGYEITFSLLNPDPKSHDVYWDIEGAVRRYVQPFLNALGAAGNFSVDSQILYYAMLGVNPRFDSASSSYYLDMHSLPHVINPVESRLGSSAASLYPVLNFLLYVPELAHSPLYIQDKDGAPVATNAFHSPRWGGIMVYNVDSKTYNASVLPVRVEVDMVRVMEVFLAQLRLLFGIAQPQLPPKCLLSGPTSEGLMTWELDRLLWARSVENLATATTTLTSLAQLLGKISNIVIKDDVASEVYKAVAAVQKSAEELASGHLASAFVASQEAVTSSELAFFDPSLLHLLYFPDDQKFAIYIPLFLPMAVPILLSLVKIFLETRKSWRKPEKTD
UniProt Q96BD5: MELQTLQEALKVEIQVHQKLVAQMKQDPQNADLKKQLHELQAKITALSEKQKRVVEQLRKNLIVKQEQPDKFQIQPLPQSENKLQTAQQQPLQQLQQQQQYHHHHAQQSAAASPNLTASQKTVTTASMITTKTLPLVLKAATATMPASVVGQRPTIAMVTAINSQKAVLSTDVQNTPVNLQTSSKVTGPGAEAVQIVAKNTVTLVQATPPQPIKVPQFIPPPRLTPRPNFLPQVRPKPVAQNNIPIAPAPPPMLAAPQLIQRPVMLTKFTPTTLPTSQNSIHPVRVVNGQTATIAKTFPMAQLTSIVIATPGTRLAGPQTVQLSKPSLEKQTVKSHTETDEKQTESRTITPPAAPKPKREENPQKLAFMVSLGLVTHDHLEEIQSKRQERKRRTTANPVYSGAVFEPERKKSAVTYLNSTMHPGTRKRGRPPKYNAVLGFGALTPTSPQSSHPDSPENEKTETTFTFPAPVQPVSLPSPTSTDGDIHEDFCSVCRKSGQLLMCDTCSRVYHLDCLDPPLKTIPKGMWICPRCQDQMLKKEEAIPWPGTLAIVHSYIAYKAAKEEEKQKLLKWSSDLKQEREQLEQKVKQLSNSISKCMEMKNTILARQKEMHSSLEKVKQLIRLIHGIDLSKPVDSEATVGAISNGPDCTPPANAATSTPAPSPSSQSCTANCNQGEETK
UniProt O43175: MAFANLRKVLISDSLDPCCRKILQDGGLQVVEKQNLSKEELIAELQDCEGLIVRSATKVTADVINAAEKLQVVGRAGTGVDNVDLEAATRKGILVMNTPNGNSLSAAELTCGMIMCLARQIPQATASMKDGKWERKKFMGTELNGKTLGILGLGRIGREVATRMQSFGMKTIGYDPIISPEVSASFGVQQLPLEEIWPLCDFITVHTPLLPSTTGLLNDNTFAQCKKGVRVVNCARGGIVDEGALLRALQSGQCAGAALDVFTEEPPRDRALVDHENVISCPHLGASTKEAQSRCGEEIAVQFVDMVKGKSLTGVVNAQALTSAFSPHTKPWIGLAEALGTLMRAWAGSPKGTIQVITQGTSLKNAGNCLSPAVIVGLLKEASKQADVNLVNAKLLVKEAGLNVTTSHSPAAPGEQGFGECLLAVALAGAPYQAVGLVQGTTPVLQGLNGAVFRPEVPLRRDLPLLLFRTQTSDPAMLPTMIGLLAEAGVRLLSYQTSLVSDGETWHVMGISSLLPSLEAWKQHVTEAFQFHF
UniProt P12273: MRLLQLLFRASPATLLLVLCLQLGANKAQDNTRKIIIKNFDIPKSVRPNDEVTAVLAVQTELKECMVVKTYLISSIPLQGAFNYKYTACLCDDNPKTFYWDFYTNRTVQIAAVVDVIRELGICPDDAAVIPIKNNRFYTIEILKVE
UniProt Q32NB8: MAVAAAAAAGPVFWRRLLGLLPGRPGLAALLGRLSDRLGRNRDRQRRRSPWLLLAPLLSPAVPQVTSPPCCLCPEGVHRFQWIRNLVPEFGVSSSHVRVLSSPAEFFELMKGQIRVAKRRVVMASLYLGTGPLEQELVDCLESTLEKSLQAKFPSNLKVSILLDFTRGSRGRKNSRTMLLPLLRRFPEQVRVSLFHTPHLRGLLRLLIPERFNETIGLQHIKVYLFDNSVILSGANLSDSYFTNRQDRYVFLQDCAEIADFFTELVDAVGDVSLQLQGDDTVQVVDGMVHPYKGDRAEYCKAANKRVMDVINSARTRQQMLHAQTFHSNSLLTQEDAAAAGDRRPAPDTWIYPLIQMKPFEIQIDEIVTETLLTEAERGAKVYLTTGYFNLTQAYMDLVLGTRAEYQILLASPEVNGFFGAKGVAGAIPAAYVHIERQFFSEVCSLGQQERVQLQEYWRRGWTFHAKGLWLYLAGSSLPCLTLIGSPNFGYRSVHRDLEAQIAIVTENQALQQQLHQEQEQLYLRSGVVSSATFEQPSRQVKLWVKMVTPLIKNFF
UniProt Q9BUL5: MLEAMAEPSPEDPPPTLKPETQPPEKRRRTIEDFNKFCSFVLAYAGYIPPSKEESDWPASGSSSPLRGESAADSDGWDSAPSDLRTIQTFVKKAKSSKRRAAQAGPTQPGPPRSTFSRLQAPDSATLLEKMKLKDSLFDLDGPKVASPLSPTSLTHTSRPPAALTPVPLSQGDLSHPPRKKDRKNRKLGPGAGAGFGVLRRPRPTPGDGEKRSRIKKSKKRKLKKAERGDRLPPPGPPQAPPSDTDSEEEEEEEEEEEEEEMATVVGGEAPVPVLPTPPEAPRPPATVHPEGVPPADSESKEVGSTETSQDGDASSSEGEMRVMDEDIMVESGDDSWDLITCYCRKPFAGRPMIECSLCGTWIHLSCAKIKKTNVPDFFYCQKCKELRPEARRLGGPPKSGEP
UniProt Q9UG56: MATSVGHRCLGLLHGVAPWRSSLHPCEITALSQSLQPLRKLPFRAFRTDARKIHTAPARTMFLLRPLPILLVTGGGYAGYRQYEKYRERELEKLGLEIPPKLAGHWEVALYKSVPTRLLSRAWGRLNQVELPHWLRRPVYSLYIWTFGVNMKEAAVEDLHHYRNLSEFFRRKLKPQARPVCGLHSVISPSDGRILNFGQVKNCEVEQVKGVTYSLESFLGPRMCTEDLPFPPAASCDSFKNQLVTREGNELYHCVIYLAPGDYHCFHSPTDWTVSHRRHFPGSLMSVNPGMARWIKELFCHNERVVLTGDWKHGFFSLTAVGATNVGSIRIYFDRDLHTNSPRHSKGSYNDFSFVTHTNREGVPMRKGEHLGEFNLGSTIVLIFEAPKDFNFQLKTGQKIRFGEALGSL
UniProt P42336, whole entry, looked up: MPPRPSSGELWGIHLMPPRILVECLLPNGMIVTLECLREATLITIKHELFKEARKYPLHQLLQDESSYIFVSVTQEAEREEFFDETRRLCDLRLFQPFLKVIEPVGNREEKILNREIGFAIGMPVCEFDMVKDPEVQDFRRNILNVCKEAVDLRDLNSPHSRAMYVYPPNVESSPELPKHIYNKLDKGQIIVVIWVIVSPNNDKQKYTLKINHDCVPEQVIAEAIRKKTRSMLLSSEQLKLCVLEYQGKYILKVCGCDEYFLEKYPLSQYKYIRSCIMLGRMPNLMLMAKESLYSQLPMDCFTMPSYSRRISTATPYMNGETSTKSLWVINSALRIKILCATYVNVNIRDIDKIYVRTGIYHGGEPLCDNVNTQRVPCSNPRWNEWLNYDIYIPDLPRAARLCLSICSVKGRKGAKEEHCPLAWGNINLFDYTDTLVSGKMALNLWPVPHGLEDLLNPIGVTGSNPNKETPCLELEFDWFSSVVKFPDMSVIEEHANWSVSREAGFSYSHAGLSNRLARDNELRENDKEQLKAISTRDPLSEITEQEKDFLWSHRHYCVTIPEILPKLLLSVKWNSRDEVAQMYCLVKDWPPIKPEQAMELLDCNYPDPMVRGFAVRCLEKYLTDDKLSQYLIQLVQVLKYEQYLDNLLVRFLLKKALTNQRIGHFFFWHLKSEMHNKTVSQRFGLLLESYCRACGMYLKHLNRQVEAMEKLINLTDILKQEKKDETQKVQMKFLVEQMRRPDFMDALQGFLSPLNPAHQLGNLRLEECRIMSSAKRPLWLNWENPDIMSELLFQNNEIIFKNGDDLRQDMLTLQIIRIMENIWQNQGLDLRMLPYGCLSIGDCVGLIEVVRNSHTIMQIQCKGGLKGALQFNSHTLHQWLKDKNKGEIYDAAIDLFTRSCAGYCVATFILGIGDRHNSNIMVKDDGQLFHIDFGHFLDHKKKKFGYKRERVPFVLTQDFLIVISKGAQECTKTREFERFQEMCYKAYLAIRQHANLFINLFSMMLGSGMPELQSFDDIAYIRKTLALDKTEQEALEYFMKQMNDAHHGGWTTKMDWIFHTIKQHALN
UniProt Q9H8W4: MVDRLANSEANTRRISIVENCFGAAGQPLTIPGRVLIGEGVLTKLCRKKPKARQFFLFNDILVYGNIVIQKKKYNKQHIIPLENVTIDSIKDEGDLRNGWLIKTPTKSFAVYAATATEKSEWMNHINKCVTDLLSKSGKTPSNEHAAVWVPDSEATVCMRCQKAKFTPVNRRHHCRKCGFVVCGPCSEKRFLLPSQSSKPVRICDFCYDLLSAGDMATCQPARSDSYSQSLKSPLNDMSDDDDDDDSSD

Experiments:
Assay in all cases: log2 fold change, soluble protein after heating vs DMSO (PISA); higher = thermal stabilisation; K562 lysate, 10 uM; active = over 0.2 and 3.5 SD of the protein, either way, in both replicates (recomputed)
[1] = compound: C1=CC=C(C=C1)[C@H](COC2=CC3=C(C=C2)NC(=O)N3)NC(=O)C4=CC=CN(C4=O)CC5=CC(=C(C=C5)F)F
In short: (§1)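 Pellets of K562 cells were dounce-homogenised in PBS pH 7.4 with 1 mM MgCl2, and the crude extract was held at 1 mg/mL protein for a 30 min treatment with 10 μM compound. Aliquots were heated for 3 min over 48°C-58°C and pooled before NP-40 was added to 0.5% at 4°C. The supernatant from 21,000xg for 90 min was quantified by TMTpro 16plex LC-MS/MS with channel sums equalised. Values are reported from duplicates as log-two fold change in thermal stability relative to solvent controls.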

[2] = compound: CC1=C(SC2=C1C(=N[C@H](C3=NN=C(N32)C)CC(=O)N)C4=CC=C(C=C4)Cl)C
In short: as §1

[3] = compound: CC1=C2C(=CC=C1)N=C(N(C2=O)C3=CC=CC=C3C)CN4C=NC5=C(N=CN=C54)N
In short: as §1

[4] = compound: Cc1sc2c(c1C)C(c1ccc(Cl)cc1)=N[C@@H](CC(=O)OC(C)(C)C)c1nnc(C)n1-2
In short: as §1

[5] = compound: c1ccc([C@@H]2C[C@H]2NC2CCNCC2)cc1
In short: as §1

Measured: log2 fold change

PHF3 (UniProt Q92576)
inactive: [1] 0.017 | [2] 0.007 | [3] 0.06 | [4] -0.05 | [5] -0.058

PLAA (UniProt Q9Y263)
inactive: [1] -0.015 | [2] 0.02 | [3] -0.022 | [4] 0.018 | [5] -0.04

PIK3R4 (UniProt Q99570)
inactive: [1] -0.035 | [2] -0.014 | [3] 0.013 | [4] -0.001 | [5] -0.018

PIGA (UniProt P37287)
inactive: [1] -0.077 | [2] 0.027 | [3] -0.021 | [4] -0.019 | [5] -0.044

2 records drawn at random from the list so far, as already listed:
PHF3 (UniProt Q92576)
inactive: [1] 0.017 | [2] 0.007 | [3] 0.06 | [4] -0.05 | [5] -0.058

PIK3R4 (UniProt Q99570)
inactive: [1] -0.035 | [2] -0.014 | [3] 0.013 | [4] -0.001 | [5] -0.018

The results go on:

PIGS (UniProt Q96S52)
inactive: [1] -0.064 | [2] 0.015 | [3] 0.061 | [4] 0.001 | [5] 0.061

PI4KB (UniProt Q9UBF8)
inactive: [1] 0.022 | [2] -0.006 | [3] -0.019 | [4] -0.005 | [5] 0.002

PIGQ (UniProt Q9BRB3)
inactive: [1] -0.013 | [2] -0.207 | [3] 0.026 | [5] -0.132

PHF21A isoform 3 (UniProt Q96BD5)
inactive: [1] -0.054 | [2] -0.033 | [3] 0.005 | [4] 0.073 | [5] 0.051

PLD1 (UniProt Q13393)
inactive: [1] 0.026 | [2] 0.015 | [3] 0.006 | [4] -0.004 | [5] -0.056

PIP4P1 isoform 2 (UniProt Q86T03)
inactive: [1] 0.003 | [2] 0.072 | [3] 0 | [4] -0.055 | [5] -0.081

PHACTR4 isoform 2 (UniProt Q8IZ21)
inactive: [1] 0.03 | [2] 0 | [3] 0.014 | [4] 0.028 | [5] 0.264

PHGDH (UniProt O43175)
inactive: [1] -0.014 | [2] 0.017 | [3] 0.047 | [4] 0.046 | [5] 0.052

PIP (UniProt P12273)
inactive: [1] -0.022 | [2] 0.012 | [3] -0.342 | [4] -0.191 | [5] 0.044

PIGH (UniProt Q14442)
inactive: [1] 0.02 | [2] -0.045 | [3] 0.042 | [5] -0.109

PIGU (UniProt Q9H490)
inactive: [1] -0.099 | [2] -0.016 | [3] 0.131 | [4] 0.128 | [5] 0.025

PGRMC1 (UniProt O00264)
inactive: [1] 0.073 | [2] -0.038 | [3] 0.008 | [4] -0.031 | [5] -0.039

PGS1 (UniProt Q32NB8)
inactive: [1] -0.08 | [2] 0.037 | [3] -0.077 | [4] 0.057 | [5] 0.022

PHF23 (UniProt Q9BUL5)
inactive: [1] 0.01 | [2] 0 | [3] -0.013 | [4] -0.003 | [5] -0.015

PISD (UniProt Q9UG56)
inactive: [1] -0.013 | [2] 0.1 | [3] 0.021 | [4] 0.037 | [5] 0.061

PIK3CA (UniProt P42336)
inactive: [1] 0.026 | [2] 0.012 | [3] -0.039 | [4] 0.012 | [5] -0.045

PGP (UniProt A6NDG6)
inactive: [1] -0.008 | [2] -0.009 | [3] -0.006 | [4] 0.04 | [5] -0.036

PIP4K2A (UniProt P48426)
inactive: [1] -0.093 | [2] -0.053 | [3] -0.041 | [4] -0.05 | [5] -0.106

PHLPP1 (UniProt O60346)
inactive: [1] -0.096 | [2] 0.008 | [3] -0.01 | [4] -0.244 | [5] 0.038

PHF19 isoform 2 (UniProt Q5T6S3)
inactive: [1] -0.201 | [2] -0.102 | [3] -0.16 | [5] 0.054

PLEKHF2 (UniProt Q9H8W4)
inactive: [1] 0.045 | [2] 0.005 | [3] 0.032 | [4] -0.113 | [5] -0.1
